Test results as given in publication PMC9974310.
These are yes or no findings as the source states them, for the method shown. Binding seen in cells or lysates may run through a third protein. Some binding calls cover weakened binding; strength is not graded here.

Sequences of proteins named here, by UniProt entry; tags and fusion partners are left off.
UniProt Q15291: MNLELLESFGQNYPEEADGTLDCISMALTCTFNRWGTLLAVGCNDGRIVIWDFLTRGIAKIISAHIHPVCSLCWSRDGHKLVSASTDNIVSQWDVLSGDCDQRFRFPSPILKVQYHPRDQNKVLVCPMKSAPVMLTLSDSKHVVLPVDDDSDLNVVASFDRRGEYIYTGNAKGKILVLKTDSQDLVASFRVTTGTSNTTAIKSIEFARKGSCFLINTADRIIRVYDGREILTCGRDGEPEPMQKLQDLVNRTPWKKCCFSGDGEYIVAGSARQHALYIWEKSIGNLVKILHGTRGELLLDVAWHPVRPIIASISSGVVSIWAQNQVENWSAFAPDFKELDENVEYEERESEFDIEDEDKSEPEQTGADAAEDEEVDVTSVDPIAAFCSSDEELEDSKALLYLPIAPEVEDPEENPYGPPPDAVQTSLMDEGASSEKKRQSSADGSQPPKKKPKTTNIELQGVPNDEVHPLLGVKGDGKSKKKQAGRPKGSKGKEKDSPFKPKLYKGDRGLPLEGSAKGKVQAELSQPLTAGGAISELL

Molecular target: T1, WSB2 (WD repeat and SOCS box containing protein 2) (human (endogenous; human melanoma cells or tissues, sample not named)) (UniProt Q9NYS7)
T1 sequence: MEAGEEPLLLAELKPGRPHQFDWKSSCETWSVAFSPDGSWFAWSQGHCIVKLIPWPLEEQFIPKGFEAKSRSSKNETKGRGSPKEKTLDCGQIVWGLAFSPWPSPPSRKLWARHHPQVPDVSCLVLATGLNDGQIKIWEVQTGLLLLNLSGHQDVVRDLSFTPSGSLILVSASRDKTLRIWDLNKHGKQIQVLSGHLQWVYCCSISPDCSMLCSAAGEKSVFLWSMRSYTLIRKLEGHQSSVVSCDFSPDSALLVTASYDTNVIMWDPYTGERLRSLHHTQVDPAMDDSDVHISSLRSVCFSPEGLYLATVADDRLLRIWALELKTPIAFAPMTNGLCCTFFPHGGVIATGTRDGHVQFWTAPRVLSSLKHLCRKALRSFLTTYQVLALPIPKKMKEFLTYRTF
Assay: co-IP; WSB2 antibody (2 µl) added to 200 µl protein lysate, 24 h at 4°C, Protein A/G magnetic beads 3 h at 4°C; normal rabbit IgG as negative control; western blot

binding: binds
Substance: Retinoblastoma-binding protein 5 (RBBP5) (from UniProt Q15291 1-538)
